Results on 23 compounds are retold here after PubChem BioAssay AID336 (DTP/NCI, 2004).

The list does not hold the whole screen: it is rich in T/C values a quarter to a half above the control, in often repeated tests (any T/C) and in doses without a T/C. Further doses and runs are listed elsewhere. T/C gives the treated animals as a percentage of the vehicle group. Some doses have a count of surviving animals in place of a T/C: the source holds a T/C of zero for them, seemingly a mark for toxic or unscored doses. Some doses without a T/C left all or most animals alive at the check, yet need not have been tolerated: the source hardly ever lists a survival T/C far under the control, and the zero likely stands for such cases as well. Survivors were counted at the toxicity check, usually on the fifth day, unless a day is given; later deaths do not show. Schedules are NCI's codes, read here as Q, the interval in days (D) or hours (H), X, the number of doses. Some entries hold several experiments; their values stand side by side, smallest first. Where survival is the endpoint, this PubChem deposit counts one and a half times the control or more as active, and values a quarter to a half above the control carry no call in these data; other NCI protocols may use other cut-offs. Some T/C values are followed by the survivors on the day toxicity was checked, most often the fifth; without a count, all were alive then.

The subject of the test is BDF1 mice, P388/VCR leukemia ip, median survival T/C. The experiment in a line: NCI In Vivo Anticancer Drug Screen. Data for tumor model P388 Leukemia resistant to Vincristine; NSC 67574 (intraperitoneal) in B6D2F1 (BDF1) mice. The settings on record: T/C endpoint: median survival time, higher T/C = longer survival. On the procedure:
The antitumor activity of compounds was measured in mice bearing transplantable tumors. Survival or tumor size were measured and the results are expressed as the measurement made in the treated group (T) divided by the measurement made in the vehicle treated control group (C). The tumor model used in this assay is P388 Leukemia resistant to Vincristine; NSC 67574 (intraperitoneal) in B6D2F1 (BDF1) mice

Where [1] appears, read: dose: 0.5 mg/kg/injection, schedule: Q01DX010 (ip), vehicle: saline.
Where [2] appears, read: dose: 40.0 mg/kg/injection, schedule: Q01DX010 (ip), vehicle: saline.
Where [3] appears, read: dose: 60.0 mg/kg/injection, schedule: Q01DX010 (ip), vehicle: saline.
[4] abbreviates: dose: 32.0 mg/kg/injection, schedule: Q01DX010 (ip), vehicle: saline.
The mark [5] stands for this setting: dose: 64.0 mg/kg/injection, schedule: Q01DX010 (ip), vehicle: saline.
[6] abbreviates: dose: 12.0 mg/kg/injection, schedule: Q01DX010 (ip), vehicle: saline.
[7] abbreviates: dose: 1.25 mg/kg/injection, schedule: Q01DX010 (ip), vehicle: saline.
The mark [8] stands for this setting: dose: 5.0 mg/kg/injection, schedule: Q01DX010 (ip), vehicle: saline.
The mark [9] stands for this setting: dose: 25.0 mg/kg/injection, schedule: Q01DX010 (ip), vehicle: saline.
[10] abbreviates: dose: 80.0 mg/kg/injection, schedule: Q01DX010 (ip), vehicle: saline.
The mark [11] stands for this setting: dose: 8.0 mg/kg/injection, schedule: Q01DX010 (ip), vehicle: saline.
The mark [12] stands for this setting: dose: 10.0 mg/kg/injection, schedule: Q01DX010 (ip), vehicle: saline.
[13] abbreviates: dose: 0.25 mg/kg/injection, schedule: Q01DX010 (ip), vehicle: saline.

For the compound `CC/C(=C(/CC)c1ccc(O)cc1)c1ccc(O)cc1`, the survivor count (dose: 25.0 mg/kg/injection, schedule: Q01DX010 (sc), vehicle: steroid suspending solution) is on record as 6 of 6; the survivor count (dose: 50.0 mg/kg/injection, schedule: Q01DX010 (sc), vehicle: steroid suspending solution) is reported as 6 of 6; the survivor count (dose: 100.0 mg/kg/injection, schedule: Q01DX010 (sc), vehicle: steroid suspending solution) is 6 of 6.

Turning to `CC[C@H]1CN2CCc3cc(OC)c(OC)cc3[C@@H]2C[C@@H]1C[C@@H]1c2cc(OC)c(OC)cc2CCN1CCN(CCCl)CCCl`, the T/C (dose: 18.0 mg/kg/injection, schedule: Q04DX003 (ip), vehicle: saline with Tween-80) is 137 % of control. For the setting “dose: 30.0 mg/kg/injection, schedule: Q04DX003 (ip), vehicle: saline with Tween-80”, the survivor count is recorded as 4 of 8.

For `O[C@H](CN1CC1)[C@@H](O)CN1CC1`, under setting [1], the T/C was 137 % of control and the survivor count was 6 of 6. Also, the survivor count (dose: 1.0 mg/kg/injection, schedule: Q01DX010 (ip), vehicle: saline) is 3 of 6 and 6 of 6.

`CN=C(NC)c1ccc(NC(=O)c2ccc(C(=O)Nc3ccc(C(=NC)NC)cc3)c(Cl)c2)cc1`: the survivor count is given as 6 of 6 under setting [2] and 4 of 6 under setting [3].

In the case of `c1ccc(CNc2ncnc3[nH]ncc23)cc1`, the survivor count is on record as 6 of 6 under setting [4] and 6 of 6 under setting [5].

As for `O=C(Nc1ccc(NC(=O)Nc2cccc(C3=NCCN3)c2)cc1)Nc1cccc(C2=NCCN2)c1`, the T/C under setting [3] was 141 and 145 % of control; the T/C (dose: 240.0 mg/kg/injection, schedule: Q01DX010 (ip), vehicle: saline) was 133 and 137 % of control.

Consider `CCN(CC)CCNc1ccc(CO)c2sc3ccccc3c(=O)c12`, for which the T/C (dose: 42.0 mg/kg/injection, schedule: Q01DX009 (ip), vehicle: water) was 136 % of control; the T/C (dose: 60.0 mg/kg/injection, schedule: Q01DX009 (ip), vehicle: water) was 132 % of control [7 of 8 alive]; the T/C (dose: 70.0 mg/kg/injection, schedule: Q01DX009 (ip), vehicle: water) was 133 % of control; the T/C (dose: 100.0 mg/kg/injection, schedule: Q01DX009 (ip), vehicle: water) was 139 % of control.

Turning to `Nc1ncnc2[nH]ncc12`, the survivor count reads like this: (dose: 1.5 mg/kg/injection, schedule: Q01DX010 (ip), vehicle: saline) 6 of 6; (dose: 3.0 mg/kg/injection, schedule: Q01DX010 (ip), vehicle: saline) 6 of 6; under setting [6], 6 of 6.

For the compound `N#[N+]c1cnc([O-])[nH]c1=O`, the T/C is, setting by setting: under setting [7], 144 % of control; (dose: 2.5 mg/kg/injection, schedule: Q01DX010 (ip), vehicle: saline) 130 and 148 % of control; under setting [8], 135 % of control. Further, under “dose: 20.0 mg/kg/injection, schedule: Q01DX010 (ip), vehicle: saline”, the survivor count is listed as 0 of 6.

On to `COc1cc([C@@H]2c3cc4c(cc3[C@@H](OC3OC5CO[C@@H](c6cccs6)OC5C(O)C3O)[C@H]3COC(=O)[C@H]23)OCO4)cc(OC)c1O` (stereo partly specified), for which the T/C (dose: 3.24 mg/kg/injection, schedule: Q04DX003 (ip), vehicle: clinical formulation) was 145 % of control and the T/C (dose: 9.0 mg/kg/injection, schedule: Q04DX003 (ip), vehicle: clinical formulation) is 149 % of control.

For `N=[N+]=CC(=O)OCC(N)C(=O)O` (stereo unspecified), the T/C is 129 % of control (dose: 1.56 mg/kg/injection, schedule: Q01DX010 (ip), vehicle: saline); 133 % of control (dose: 3.13 mg/kg/injection, schedule: Q01DX010 (ip), vehicle: saline); 141 % of control (dose: 6.25 mg/kg/injection, schedule: Q01DX010 (ip), vehicle: saline). The survivor count under setting [9] is reported as 6 of 6.

On to `Clc1ncnc2nc[nH]c12`, for which the survivor count is given as 6 of 6 (dose: 30.0 mg/kg/injection, schedule: Q01DX010 (ip), vehicle: saline) and 6 of 6 under setting [3].

`CCN(CC)CCNc1ccc(C)c2sc3ccccc3c(=O)c12`: the T/C under setting [9] was 127 and 136 % of control. For the same compound, the survivor count is recorded as 6 of 6 (dose: 100.0 mg/kg/injection, schedule: Q01DX010 (ip), vehicle: saline); 6 of 6 (dose: 125.0 mg/kg/injection, schedule: Q01DX010 (ip), vehicle: saline); 6 of 6 (dose: 200.0 mg/kg/injection, schedule: Q01DX010 (ip), vehicle: saline).

Turning to `CC1CCOS(=O)O1` (stereo unspecified), the survivor count under setting [10] is 6 of 6.

In the case of `O=C(Nc1ccc(C2=NCCN2)cc1)c1cccc(C(=O)Nc2ccc(C3=NCCN3)cc2)c1`, the T/C reads like this: under setting [11], 125 % of control; (dose: 16.0 mg/kg/injection, schedule: Q01DX010 (ip), vehicle: saline) 129 % of control; under setting [4], 129 and 145 % of control; under setting [5], 140 % of control.

For the compound `C[n+]1ccc(NC(=O)c2ccc(NC(=O)c3cccc(C(=O)Nc4ccc(C(=O)Nc5cc[n+](C)cc5)cc4)c3)cc2)cc1`, the T/C is 125 % of control under setting [8] and 141 % of control under setting [12]. Under setting [2], the survivor count is 0 of 7.

Turning to `CC[C@]1(O)C[C@H]2CN(CCc3c([nH]c4ccccc34)[C@@](C(=O)OC)(c3cc4c(cc3OC)N(C=O)[C@H]3[C@@](O)(C(=O)OC)[C@H](OC(C)=O)[C@]5(CC)C=CCN6CC[C@]43[C@@H]65)C2)C1`, the survivor count is, setting by setting: (dose: 0.03 mg/kg/injection, schedule: Q01DX010 (ip), vehicle: saline) 6 of 6; (dose: 0.06 mg/kg/injection, schedule: Q01DX010 (ip), vehicle: saline) 6 of 6; (dose: 0.12 mg/kg/injection, schedule: Q01DX010 (ip), vehicle: saline) 6 of 6; under setting [13], 6 of 6; under setting [1], 6 of 6; (dose: 1670.0 micrograms/kg/injection, schedule: Q04DX003 (ip), vehicle: saline) 7 of 8. Moreover, under setting [13], the T/C is 126 % of control.

Regarding `O=C(Nc1cccc(C(=O)Nc2ccc(C3=NCCN3)cc2)c1)c1ccc(C2=NCCN2)cc1`, the survivor count reads like this: under setting [10], 3 of 6; (dose: 120.0 mg/kg/injection, schedule: Q01DX010 (ip), vehicle: saline) 0 of 6; (dose: 180.0 mg/kg/injection, schedule: Q01DX010 (ip), vehicle: saline) 0 of 6.

For the compound `O=C(Nc1ccc(C2=NCCN2)cc1)c1ccc(C(=O)Nc2ccc(C3=NCCN3)cc2)c([N+](=O)[O-])c1`, the T/C runs as follows: (dose: 6.0 mg/kg/injection, schedule: Q01DX010 (ip), vehicle: saline) 125 % of control; under setting [11], 133 % of control; under setting [6], 125 % of control.

With `NC(Cc1ccc(N(CCCl)CCCl)cc1)C(=O)O` (stereo unspecified), the T/C is 140 % of control under setting [7] and 143 % of control under setting [8].

Consider `O=c1[nH]c(=O)n(C2CC(O)C(CO)O2)cc1F` (stereo unspecified), for which the T/C under setting [12] was 125 % of control. Moreover, the survivor count under setting [10] is 6 of 6.

On to `O=C[C@@H](CO)O[C@H](C=O)n1cnc2c(=O)[nH]cnc21`, for which the T/C (dose: 108.0 mg/kg/injection, schedule: Q04DX003 (ip), vehicle: water) is 131 % of control. Also, where the note is “dose: 500.0 mg/kg/injection, schedule: Q04DX003 (ip), vehicle: water”, the survivor count is listed as 1 of 8.

Take `O=C(Nc1cccc(NC(=O)Nc2cccc(C3=NCCN3)c2)c1)Nc1cccc(C2=NCCN2)c1`: the T/C runs as follows: (dose: 27.0 mg/kg/injection, schedule: Q01DX010 (ip), vehicle: saline) 140 % of control; under setting [3], 145 % of control.
